Reference: article PMC3386930, “Altering APP Proteolysis: Increasing sAPPalpha Production by Targeting Dimerization of the APP Ectodomain” (PLoS ONE, 2012)

Protein sequences, listed by entry. Tags and fused reporters are not part of them. Lines headed by an entry give the natural chain unless they say otherwise; changes in a name come on top.
UniProt P05067: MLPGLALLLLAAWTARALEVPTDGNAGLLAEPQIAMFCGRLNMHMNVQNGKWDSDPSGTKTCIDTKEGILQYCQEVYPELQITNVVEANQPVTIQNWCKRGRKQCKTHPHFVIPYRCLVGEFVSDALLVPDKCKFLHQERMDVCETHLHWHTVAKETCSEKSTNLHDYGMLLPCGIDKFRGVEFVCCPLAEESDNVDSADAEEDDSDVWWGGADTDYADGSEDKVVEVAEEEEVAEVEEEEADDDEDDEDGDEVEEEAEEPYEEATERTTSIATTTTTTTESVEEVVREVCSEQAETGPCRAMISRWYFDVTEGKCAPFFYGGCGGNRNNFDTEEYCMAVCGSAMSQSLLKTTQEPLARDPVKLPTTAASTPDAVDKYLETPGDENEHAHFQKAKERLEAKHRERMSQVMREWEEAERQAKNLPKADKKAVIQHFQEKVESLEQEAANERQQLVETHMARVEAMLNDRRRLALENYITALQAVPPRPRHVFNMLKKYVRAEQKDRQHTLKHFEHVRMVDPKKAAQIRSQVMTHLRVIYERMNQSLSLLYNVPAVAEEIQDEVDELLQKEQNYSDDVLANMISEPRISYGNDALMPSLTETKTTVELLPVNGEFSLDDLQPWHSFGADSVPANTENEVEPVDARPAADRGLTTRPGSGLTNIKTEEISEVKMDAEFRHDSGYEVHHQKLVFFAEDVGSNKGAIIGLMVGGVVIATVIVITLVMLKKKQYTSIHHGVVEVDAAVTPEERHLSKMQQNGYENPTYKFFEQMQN

Experiments:
[1] = tested on: TRX-eAPP290–624; assay: Small-angle X-ray scattering (SAXS) of TRX-eAPP290–624 complexes; assay type: binding; conditions: for MWcalc/MWseq: SAXS relative mass, MWseq 52-kDa for TRX-eAPP290–624, max. error ±0.2, monomer around 1.3, protein alone 2.0; for Dmax / Rg: SAXS, GNOM, TRX-eAPP290–624 with peptide; for Dmax: maximum dimension, max. estimated error ±10 Å; for Rg: radius of gyration, max. estimated error ±2 Å
[2] = tested on: MBP-eAPP230–624; assay: Small-angle X-ray scattering (SAXS) of MBP-eAPP230–624 complexes; assay type: binding; conditions: for MWcalc/MWseq: SAXS relative mass, max. error ±0.2; for Dmax / Rg: SAXS; for Dmax: max. estimated error ±10 Å; for Rg: max. estimated error ±2 Å
Procedure: The excitation spectra of the intrinsic tryptophan fluorescence were recorded using either a Shimadzu RF-530PC (Shimadzu Scientific Instruments) or a Spectramax XPS spectrophotometer (Molecular Devices).
The samples were incubated on ice for 20 minutes and then concentrated to 50 µl with 10-kDa cutoff concentrators (Millipore). […] Samples of the filtrates were used for buffer subtraction.
The samples were then concentrated and purified with a Superdex S200 size-exclusion column with 20 mM Tris pH 7.4, 100 mM sodium chloride and 2 mM EDTA. Samples of the protein buffer from the size-exclusion columns were used for buffer subtraction.
Data collection and processing
Small-angle X-ray scattering data were collected using protein concentrations in the range of 0.5–3 mg/ml and an X-ray wavelength of 1.11 Å at beam line 12.3.1 (Advanced Light Source). Data were integrated with software customized for the beam line and processed with the program PRIMUS [30]. The program GNOM [31] was used to calculate the maximum dimension and the radius of gyration and to estimate the intensity of the scattering at zero angle for higher concentration samples.

[3] = MWseq 90-kDa for MBP-eAPP230–624, Aβ peptides, protein alone 2.0
[4] = maximum dimension, GNOM, MBP-eAPP230–624 with Aβ peptide
[5] = radius of gyration, GNOM, MBP-eAPP230–624 with Aβ peptide
[6] = 1,8-ANS at 1:20 molar ratio of protein to 1,8-ANS
[7] = 50 µM compound, 1:12 molar ratio, PBS plus 2% DMSO, 2% DMSO control 2.0
[8] = 50 µM compound, 1:12 molar ratio, PBS plus 2% DMSO, 2% DMSO control 54
[9] = 50 µM compound, 1:12 molar ratio, PBS plus 2% DMSO, 2% DMSO control 180

| Compound | MWcalc/MWseq [1] | Dmax [1] [Å] | Rg [1] [Å] | MWcalc/MWseq [2, 3] | Dmax [2, 4] [Å] | Rg [2, 5] [Å] | other results |
| --- | --- | --- | --- | --- | --- | --- | --- |
| 7-kDa Aβ1-40: 7-kDa Aβ1-40 dimers, prepared by sonication and 15 minutes incubation | 1.1 | 160 | 40 | 1.1 | 210 | 63 | – |
| 20-kDa Aβ1-42: 20-kDa Aβ1-42 oligomers | – | 160 | 43 | – | 210 | 58 | – |
| O=S(=O)(O)c1cccc2cccc(Nc3ccccc3)c12 [1,8-ANS, 1-anilinonaphthalene-8-sulfonic acid] | – | – | – | – | – | – | MWcalc/MWseq ([2]; 1,8-ANS at 1:20 molar ratio): 1.9; Rg [2, 6]: 63 Å; Dmax [2, 6]: 190 Å |
| CCN(CC)C(=S)SSC(=S)N(CC)CC [Disulfiram] | – | – | – | – | – | – | MWcalc/MWseq [2, 7]: 1.5; Rg [2, 8]: 51 Å; Dmax [2, 9]: 160 Å |
| CCN(CC)C(=S)SC(=S)N(CC)CC [Sulfiram] | – | – | – | – | – | – | MWcalc/MWseq [2, 7]: 1.7; Rg [2, 8]: 53 Å; Dmax [2, 9]: 170 Å |
| Aβ1-28: Aβ fragment | 1.5 | 140 | 42 | 1.2 | 180 | 54 | – |
| Aβ5-14: Aβ fragment (RHDSGYEVHH; Amyloid-beta protein 42; UniProt P05067 676-685, looked up, fragment) | – | – | – | 1.6 | 180 | 54 | – |
| Aβ11-17: Aβ fragment (EVHHQKL; Amyloid-beta protein 42; UniProt P05067 682-688, looked up, fragment) | 1.2 | 130 | 38 | – | – | – | – |
